Results from patent publication EP4741420A1, “PHARMACEUTICAL COMPOSITION FOR PREVENTING OR TREATING OBESITY COMPRISING GLP ANALOGUE AS ACTIVE INGREDIENT” (priority 2023, dated 2025).
At least one peptide structure holds a part that was inferred or is arguable (an end, a ring closure or a residue). Peptide text beside a SMILES is read from it.

Assays:
[1] = tested on: diet-induced obesity (DIO) mouse model; assay: DIO mouse model QD: weight loss and cumulative food intake (Example 7-1); format: in vivo; conditions: DIO mice, QD (once daily), 4-week administration, 10 nmol/kg/dose
Protocol: The obesity treatment effect of the long-acting GLP analog prepared in Example 1 was evaluated. Specifically, an obesity animal model was prepared to confirm the obesity treatment effect, and after administering a certain amount of material, the model was subjected to measurement of a body weight and the change in food intake, and biochemical tests. First, to establish a diet-induced obesity mouse model, C57BL/6 DIO mice were fed a high-fat diet for 12 weeks, resulting in a body weight that was 130% that of the control (DIO model). Afterward, the mice were grouped at a specific time point to determine the average weight of the DIO model (46.2±2.2), followed by drug administration to the mice for 4 weeks. Here, the body weight and food intake were measured daily.
(§1) The anti-obesity effects of SEQ ID NO: 1 prepared in Example 1, and SEQ ID NOs: 6 and 7 prepared in Example 4 were analyzed. […] In addition, as an experimental model, a diet-induced obesity (DIO) mouse model fed a high-fat diet for 3 months was used.
To analyze the anti-obesity effect, first, the comparative analysis of weight loss effect and cumulative food intake was conducted. The experimental method was the same as described in Example 3.

[2] = tested on: diet-induced obesity (DIO) mouse model; assay: DIO mouse model QD: body composition by DEXA (Example 7-2); format: in vivo, mice; conditions: QD (once daily), 10 nmol/kg/dose
Protocol: as §1
To analyze the anti-obesity effect, body composition analysis was conducted using Dual Energy X-ray Absorptiometry (DEXA). The DEXA imaging system (VET DXA iNSiGHT) is for measuring the bone density and body fat of an experimental animal through dual X-ray transmission, and after the completion of experimental material administration, DEXA fat mass and muscle mass were measured for each individual. Accordingly, body weight was categorized into BMC, lean, and fat, and the fat reduction was analyzed to provide a more objective assessment of the anti-obesity effect according to Example 7-1.

[3] = tested on: diet-induced obesity (DIO) mouse model; assay: DIO mouse model QD: fat weight by tissue (Example 7-3); format: in vivo; conditions: fat weight of tissue, DIO mice, QD (once daily), 10 nmol/kg/dose
Protocol: as §1
To analyze the anti-obesity effect, the amount of fat by tissue was measured postmortem to further confirm the efficacy of the peptide in obesity. Specifically, the epididymal, mesenteric, inguinal, and perirenal tissues of animals euthanized by decapitation were excised to measure the fat weights for each tissue and then photographed.

[4] = tested on: diet-induced obesity (DIO) mouse model; assay: DIO mouse model QD: obesity-related factors in plasma (Example 7-4); format: in vivo; conditions: DIO mice, QD (once daily), 10 nmol/kg/dose
Protocol: In addition, after the experiment was completed, blood and serum samples were obtained from each mouse model, and biochemical tests were performed for blood glucose, total cholesterol, high-density lipoprotein (HDL), low-density lipoprotein (LDL), and triglycerides.
as §1
To analyze the anti-obesity effect, mouse plasma was obtained postmortem to measure obesity-related factors in plasma. Here, the analysis method was the same as described in Example 3.

[5] = tested on: diet-induced obesity (DIO) mouse model; assay: DIO mouse model QD: liver damage markers AST/ALT (Example 8-1); format: in vivo; conditions: serum, DIO mice, QD (once daily), 10 nmol/kg/dose
Protocol: The anti-obesity effect in the liver was analyzed for the same materials used in Example 7. Specifically, liver damage marker (AST/ALT) analysis, liver weight/fatty liver examination, hepatic triglyceride measurement, and liver ORO staining analysis were performed.
To analyze the liver damage markers, AST/ALT, blood biochemical analysis was performed on the blood of a material-treated obese mouse model. Specifically, the collected blood was divided into two tubes, approximately 200 µL of the blood was put into each EDTA tube, and the remaining volume was injected into a vacutainer tube containing a coagulant. Blood collected in an EDTA tube was used to measure glycated hemoglobin on the same day, while the blood collected in the vacutainer tube was left at room temperature for 15 to 20 minutes to coagulate, and then centrifuged for 10 minutes to obtain serum. The serum was used for blood biochemical analysis.

[6] = tested on: diet-induced obesity (DIO) mouse model; assay: DIO mouse model QD: liver weight and steatosis score, H&E (Example 8-2); format: in vivo, mice; conditions: QD (once daily), 10 nmol/kg/dose
Source text: To examine liver weight and steatosis, the liver weight elevated by obesity induction and the degree of steatosis after liver H&E staining were scored from grades 0 to 3 to compare the drug's hepatic efficacy. First, after the test was completed, the animal's liver was excised on the day of necropsy to confirm the liver efficacy of the drug. After measuring the weight of the excised liver, the intermediate lobes were frozen in liquid nitrogen for the subsequent measurement of triglycerides. The remaining portion of the liver was fixed in 10% neutral buffered formalin and subjected to histopathological examination.
For H&E analysis, the liver tissue fixed in the buffered formalin was put into an automatic tissue processor, embedded in paraffin, and then prepared into a paraffin block. Subsequently, the paraffin block was prepared into a tissue section, which was stained with hematoxylin & eosin (H&E). The stained tissue slide was observed using an optical microscope (BX61, Olympus, Japan) and photographed (DP80, Olympus, Japan).
Histopathological quantification of liver tissue was performed by scoring the degree of steatosis on H&E-stained slides from grades 0 to 3. The contents corresponding to each scoring grade are as follows.

[7] = tested on: diet-induced obesity (DIO) mouse model; assay: DIO mouse model QD: hepatic triglyceride measurement (Example 8-3); format: in vivo; conditions: liver tissue, DIO mice, QD (once daily), 10 nmol/kg/dose
Protocol: To measure hepatic triglyceride levels, triglycerides in liver tissue excised on the necropsy day were analyzed using a measurement kit (Biomax, Cat no. BM-TGR-100).

[8] = tested on: diet-induced obesity (DIO) mouse model; assay: DIO mouse model QD: liver Oil Red O staining (Example 8-4); format: in vivo; conditions: DIO mice, QD (once daily), 10 nmol/kg/dose
Protocol: Finally, to confirm the anti-obesity effect in the liver, liver Oil Red O staining analysis was performed. ORO staining is a staining method used to detect triglycerides (fat) in adipose-related diseases, and used to differentiate fat embolism, liposarcoma, hepatic steatosis, and lipid accumulation disorders. In addition, it can also detect lipid complexes, such as phospholipids. For ORO analysis, liver tissue was processed in 30% sucrose in a refrigerator for 3 days to prepare frozen tissue sections, which were used to prepare OCT-embedded frozen blocks. Cryosections were prepared and stained with ORO.

CC[C@H](C)[C@H](NC(=O)[C@H](Cc1ccccc1)NC(=O)[C@H](CC(=O)O)NC(=O)[C@H](CCCNC(=N)N)NC(=O)[C@H](C)NC(=O)[C@H](C)NC(=O)[C@H](CC(C)C)NC(=O)[C@H](C)NC(=O)[C@H](CC(=O)O)NC(=O)[C@H](CC(C)C)NC(=O)[C@H](Cc1ccc(O)cc1)NC(=O)[C@@H](NC(=O)[C@H](CO)NC(=O)[C@H](CC(C)C)NC(=O)[C@H](CC(=O)O)NC(=O)[C@H](CO)NC(=O)[C@@H](NC(=O)[C@H](Cc1ccccc1)NC(=O)[C@@H](NC(=O)CNC(=O)[C@H](CCC(=O)O)NC(=O)C(C)(C)NC(=O)[C@@H](N)Cc1c[nH]cn1)[C@@H](C)O)[C@@H](C)O)[C@@H](C)O)C(=O)N[C@@H](CC(N)=O)C(=O)N[C@@H](Cc1c[nH]c2ccccc12)C(=O)N[C@@H](CC(C)C)C(=O)N[C@H](C(=O)N[C@@H](CCC(N)=O)C(=O)N[C@H](C(=O)N[C@@H](CCCCN)C(=O)N[C@H](C(=O)N[C@H](C(=O)N[C@@H](CC(=O)O)C(=O)N[C@@H](CCCCN)C(=O)N[C@@H](CCCCNC(=O)CC[C@H](NC(=O)CCCCCCCCCCCCCCCCCCC(=O)O)C(=O)O)C(=O)O)[C@@H](C)O)[C@@H](C)CC)[C@@H](C)O)[C@@H](C)CC [HU020M5] (HELM PEPTIDE1{H.[Aib].E.G.T.F.T.S.D.L.S.T.Y.L.D.A.L.A.A.R.D.F.I.N.W.L.I.Q.T.K.I.T.D.K.K}|PEPTIDE2{[O=C(O)CCCCCCCCCCCCCCCCCCC(=O)[*:2]].[gGlu]}$PEPTIDE1,PEPTIDE2,35:R3-2:R2$$$V2.0)
Comparison of weight change (%) [1]: -14.6±5.1%
Weight [1]: 38.0 ± 2.8 g
Weight (%) (Normalized to DIO vehicle) [1]: 81.6±6.0%
Food intake ([1]; cumulative): 18.3 ± 6.4 g
Fat ([2]; DEXA, DIO mice): 9.9 ± 0.9 g
Lean ([2]; DEXA, DIO mice): 27.3 ± 2.1 g
Weight ([2]; Table 9, DIO mice): 38.0 ± 2.8 g
Weight (%) (Normalized to DIO vehicle) ([2]; Table 9, DIO mice): 81.6±6.0%
Epididymal [3]: 1.76±0.25
Inguinal [3]: 2.12±0.21
Mesentric [3]: 0.78±0.21
Perirenal [3]: 0.32±0.08
HbA1c (%) ([4]; blood): 4.67±0.10%
GLU ([4]; plasma): 214.4 ± 27.1 mg/dL
HDL ([4]; plasma): 85.7 ± 5.8 mg/dL
LDL ([4]; plasma): 6.2 ± 5.8 mg/dL
TCHO ([4]; plasma): 157.3 ± 18.1 mg/dL
TG ([4]; plasma): 50.1 ± 9.7 mg/dL
ALT (U/L) [5]: 33.7±6.0 U/L
AST (U/L) [5]: 64.9±5.9 U/L
Liver weight ([6]; DIO mice): 1.45±0.15
Hepatic steatosis test (Score 0~3) ([6]; H&E, mean of grades 0 to 3, DIO mice): 0.91±0.25
Liver TG levels (nmol/µ) [7]: 0.61±0.18 nmol/µ
ORO positive area (%) [8]: 1.17±0.66%
